From the supplement of paper PMC4683952
The list shows a part of the results. Cut-off read from the data, not from the text of the source: active = 2 or more and inactive = the rest. Repeats in this data set agree poorly, so a single value says little.

Test system: Lgr5 (MarsCy1-Lgr5-EGFP, U2OS)
Assay: cell-surface Lgr5 expression (SCi1 fluorescence, background-subtracted) relative to WT DMSO (fold of DMSO control); higher = more Lgr5 at the plasma membrane
Details: U2OS MarsCy1-Lgr5-EGFP stable; treatment time: overnight; library: ActiProbe-5K (TimTec); 25 µM

Structure (SMILES)	cell-surface Lgr5 expression
CCN1CCC(=O)C(C)C1C (configuration not stated)	inactive: 1.3
N#CCSc1nnc2c(n1)[nH]c1ccccc12	inactive: 1.1
Cc1ccc(-c2nn(CN3CCC(c4ccccc4)C3)c(=S)n2-c2ccccc2)cc1 (configuration not stated)	inactive: 1.27
O=c1[nH]nc(CSCc2ccc3nsnc3c2)[nH]1	inactive: 0.973
CCOC(=O)c1csc(C)c1C	inactive: 1.31
CCOC(=O)C1=C(C)NC(=O)NC1c1ccoc1 (configuration not stated)	inactive: 1.35
C(O)(=O)[C@@H]1CS[C@](N1)(C)C	inactive: 1.19
Cc1nn(C)c(C)c1CN1CCN(c2[nH]ncc2[N+](=O)[O-])CC1	inactive: 1.17
C=CCn1nnn([C@H]2CC(=O)[C@@H]3OC[C@H]2O3)c1=S	inactive: 0.785
Cc1cc(C)n(-c2ccc(=O)[nH]n2)n1	inactive: 1.54
COc1ccc(S(=O)(=O)Nc2nc3ccc(S(C)(=O)=O)cc3s2)cc1	inactive: 1.01
O=S(=O)(Nc1cccnc1)c1ccc(Br)cc1	inactive: 1.03
Cn1c2c(c(=O)n(C)c1=O)COC2=O	inactive: 1.25
COc1ccc(/C(=N/O)c2nccc3cc(OC)c(OC)cc23)cc1OC	inactive: 1.15
CCc1cc(CC)c(/C=N/O)c(CC)c1/C=N\O	inactive: 1.02
CC1(C)CCC(=O)c2nnn(-c3nonc3N)c21	inactive: 0.74
CCCN1CCC(CC(=O)O)CC1	inactive: 1.55
c1ccc(C2OCc3nonc3CO2)cc1	inactive: 1.36
CCOc1ccc2c(c1)-c1c(sn(-c3ccc(C(C)C)cc3)c1=S)C(C)(C)N2	inactive: 1.11
OCC/N=C1\CCCc2c1[nH]c1ccc(Cl)cc21	inactive: 0.971
O=Cc1ccc(-c2ccc3c(c2)C(=O)OC3)o1	inactive: 1.14
CC1(C)Cc2c(sc(NC(=O)C3CC(=O)OC34CCCCC4)c2C#N)CO1 (configuration not stated)	inactive: 1.01

Structure (SMILES)	cell-surface Lgr5 expression
N#Cc1cc2c([nH]c1=S)CCCCCC2	inactive: 1.41
O=C(N/N=C/C=C/c1ccco1)c1ccco1	inactive: 1.09
COCc1[nH]nc2c1C1(CCOC1C)C(C#N)=C(N)O2 (configuration not stated)	inactive: 1.13
O=C1NCCN1C(=O)C12CC3CC(CC(C3)C1)C2	inactive: 1.33
CCN(CC)c1nc(C#N)nc(N2CCOCC2)n1	inactive: 1.21
OCCSc1nc2ccccc2s1	inactive: 1.2
CN(C)c1nc(N)nc(Cn2ccnc2)n1	inactive: 1.17
Cc1ccc(-c2nnc(CSC3CCS(=O)(=O)C3)o2)o1 (configuration not stated)	inactive: 1.16
N#Cc1c(SCC(=O)O)sc2c(O)nc(=O)[nH]c12	inactive: 1.39
CC(C)(C)OC(=O)N1C(N)=C(C#N)C2(CCOCC2)c2nc(C(F)(F)F)[nH]c21	inactive: 0.976
CCCCOCC(O)CN1CCCC1 (configuration not stated)	inactive: 1.2
CCCc1cc(=S)sc(N)n1	inactive: 0.918
O=C(N/N=C\C=N\NC(=O)c1cccs1)c1cccs1	inactive: 0.779
OCC1(CO)COC(c2ccccc2)=N1	inactive: 1.22
CCOC(=O)C1=NOC(Cc2c(Br)c(OC)c3c(c2OC)OCO3)C1 (configuration not stated)	inactive: 1.26
C=C1N(C)c2ccc([N+](=O)[O-])cc2C1(C)C	inactive: 1.04
CC(C)(C)S(=O)(=O)c1ccc(C(=O)O)s1	inactive: 1.35
O=c1nc(O)c2sc3nc4c(c(C(F)(F)F)c3c2[nH]1)CCC4	inactive: 1.29
COc1cc(/N=C\c2cc(Cl)cc(Cl)c2O)c(OC)cc1Cl	inactive: 1.14
CCOC(=O)COc1nsnc1N1CCOCC1	inactive: 1.16
Cc1cc(C)n2[nH]c(=O)c([N+](=O)[O-])c2n1	inactive: 1.24
CCOC(=O)c1c(N)no[n+]1[O-]	inactive: 1.43

Structure (SMILES)	cell-surface Lgr5 expression
CCCCCn1cnc2sc3c(c2c1=O)CCC(C)C3 (configuration not stated)	inactive: 1.42
Cc1ccsc1C(C1=C(O)CC(C)(C)CC1=O)C1C(=O)CC(C)(C)CC1=O (configuration not stated)	inactive: 1.1
c1ccc2ncc(-n3cnnn3)cc2c1	inactive: 1.1
Cc1ccc(/C=N\n2c(S)nnc2C2CCCCC2)s1	inactive: 1.02
O=C(C1=C(O)C(=O)N(CCCN2CCOCC2)C1c1cccs1)c1cccs1 (configuration not stated)	inactive: 1.2
CCSc1sc2c(O)nc(=O)[nH]c2c1C#N	inactive: 1.11
Oc1ccc(Br)cc1/C=N\c1ccc(Cl)cn1	inactive: 0.916
CC(C)C1C(=S)N(c2ccccc2)N=C1O (configuration not stated)	inactive: 1.18
NC(=S)C12CC3CC(CC(C3)C1)C2	inactive: 1.33
COc1cc(OC)c2c(c1)C(=O)N(C1CC1)C(=O)C2=O	inactive: 1.09
N#Cc1c(C(F)(F)F)cc(O)[nH]c1=S	inactive: 1.18
O=c1[nH]cnc2c1nc(N1CCN(CCO)CC1)n2C1OC(CO)C(O)C1O (configuration not stated)	inactive: 0.996
Cc1nn(C)cc1C1CC(C(F)(F)F)n2nccc2N1 (configuration not stated)	inactive: 1.29
CCn1ccc(/C=C2\CC/C(=C\c3ccn(CC)n3)C2=O)n1	inactive: 1.18
NCc1csc2c1CCCC2	inactive: 1.33
N#CC1=C(S)N[C@H](c2cccnc2)[C@@](C#N)(C(N)=S)[C@H]1c1cccnc1	inactive: 1.24
Nc1ccc(F)c(-n2cnnn2)c1	inactive: 1.21
Cn1cnc2c(ncn2C2OC(CO)C(O)C2O)c1=N (configuration not stated)	inactive: 1.21
C/C(=N\c1ccc(/N=N\c2ccccc2)cc1)N(C)C.Cl	inactive: 1.17
CC(C)(C)N(CCO)C(=O)C(=O)N(CCO)C(C)(C)C	inactive: 1.03
c1ccc(-c2noc(CN3CCN(C(c4ccccc4)c4ccccc4)CC3)n2)cc1	inactive: 1.28
O=c1cc(O)c2sc3nc4c(c(C(F)(F)F)c3c2[nH]1)CCC4	inactive: 1.23

Structure (SMILES)	cell-surface Lgr5 expression
CN1C(=O)C(Cc2cnc[nH]2)NC1=S (configuration not stated)	inactive: 0.989
O=C1NC2(CCCCC2)NC2=C1CCC2	inactive: 1.31
CCOC(=O)c1c(NC(=O)C(C)(C)C)sc(C(C)=O)c1C	inactive: 1.33
SC1=NC2(CCCCC2)C2=C(CCCC2)N1	inactive: 1.01
O=S(=O)(Nc1cccc(F)c1)c1ccc2c(c1)OCCO2	inactive: 1.21
CC(C)(C)c1cc2c(c(C(C)(C)C)c1)OC(c1ccc([N+](=O)[O-])cc1)N2 (configuration not stated)	inactive: 1.28
Cc1cc(NC(=O)c2ccco2)no1	inactive: 0.939
n1c(c(NC(C2C(C(OC\C(=C(\Cl)Cl)Cl)=O)CC=CC2)=O)cnc1OC)OC (configuration not stated)	inactive: 1.18
Cc1nc(C(N)=O)c(N)n1C	inactive: 0.952
CC1(C)CC(NC(=O)C(=O)NC2CC(C)(C)NC(C)(C)C2)CC(C)(C)N1	inactive: 1.52
Clc1cccc(Cl)c1-c1noc(CSc2nc3ccccc3o2)n1	inactive: 1.21
CN1CC2=C(OC(N)=C(C#N)C2c2cccs2)/C(=C/c2cccs2)C1 (configuration not stated)	inactive: 1.12
O=S(=O)(Nc1ccc(Cl)cn1)c1cccs1	inactive: 1.07
COc1ccc(OCCSc2nc3c(N)ncnc3[nH]2)cc1	inactive: 1.28
O=[N+]([O-])c1ccc2[nH]c3c(c2c1)CCCC3	inactive: 1.59
CSc1nc2cc(S(=O)(=O)N3CCOCC3)ccc2s1	inactive: 1.11
c1coc(C2OCC3(CO2)COC(c2ccco2)OC3)c1 (configuration not stated)	inactive: 1.22
CC1=C(C)Cn2c(=S)c3ccccc3c(=S)n2C1	inactive: 1.14
Cc1sc(/C=C(\C#N)C(N)=S)cc1[N+](=O)[O-]	inactive: 1.68
c1ccc(-c2nnc3sc(C4CCCCC4)nn23)nc1	inactive: 1.12
FC(F)(F)C1=Nc2ccccc2N(c2ccc(Cl)c(Cl)c2)C1	inactive: 1.01
OCCn1cc(Br)cn1	inactive: 1.07

Quoted at random: 4 records from the list, in no set order.
Structure (SMILES)	cell-surface Lgr5 expression
CCOC(=O)c1c(NC(=O)C(C)(C)C)sc(C(C)=O)c1C	inactive: 1.33
CN1CC2=C(OC(N)=C(C#N)C2c2cccs2)/C(=C/c2cccs2)C1 (configuration not stated)	inactive: 1.12
c1ccc(-c2nnc3sc(C4CCCCC4)nn23)nc1	inactive: 1.12
COc1ccc(OCCSc2nc3c(N)ncnc3[nH]2)cc1	inactive: 1.28

(more compounds)

Structure (SMILES)	cell-surface Lgr5 expression
O=c1oc(-c2ccco2)nc2sc3c(c12)CCCC3	inactive: 1.2
Nc1nn2c(=O)c3[nH]c4ccc(F)cc4c3nc2s1	inactive: 1.72
O=[N+]([O-])c1cc(Sc2nc3ccccc3o2)cc2nsnc12	inactive: 1.77
COc1cccc(OC)c1OCc1nc(N)nc(N(C)C)n1	inactive: 1.3
O=C(O)c1n[nH]cc1[N+](=O)[O-]	inactive: 1.32
CN1CCN(CC(C)(C)N)CC1	inactive: 1.12
O=C1c2ccccc2C(=O)N1CCn1c2ccccc2c2nc3ccccc3nc21	inactive: 1.24
Br.CN1C/C(=C\c2ccco2)C(=O)/C(=C/c2ccco2)C1	inactive: 0.394
Cc1ccc(C(=O)O)c(=O)[nH]1	inactive: 1.46
CN1C(=O)/C(=C2\S/C(=N/c3ccccc3)N(c3ccccc3)C2=O)c2ccccc21	inactive: 1.35
Cc1c(-c2cccs2)n[nH]c1N	inactive: 1.01
COc1ccc(S(=O)(=O)Oc2ccc(/N=C\c3cc(Br)ccc3OC)cc2)cc1	inactive: 1.37
CSc1[nH]c(=O)c([N+](=O)[O-])cc1C#N	inactive: 1.03
N#CCC12CC3CC(CC(C3)C1)C2	inactive: 1.23
c1ccc(C2=NN3COc4ccccc4C3C2)cc1 (configuration not stated)	inactive: 0.707
C#CCOc1cccc(/C=N\N=C(\N)c2nonc2N)c1	inactive: 1.03
N#Cc1c[nH]c2ccc(F)cc12	inactive: 0.81
CCn1c2ccccc2c2cc(C3Oc4ccccc4C4CC(c5ccccc5)=NN43)ccc21 (configuration not stated)	inactive: 0.867
Sc1nnc(-c2cccs2)n1/N=C/c1ccco1	inactive: 0.761
